{"source": "patent US5488055A", "about": "“Substituted N-cycloalkylmethyl-1H-pyrazolo(3,4-b)quinolin-4 amines and compositions and methods of use thereof” (Sanofi Winthrop Inc., priority 1995, dated 1996)", "tested_on": "cGMP-PDE V", "assay": "c-GMP-PDE V inhibitory activity", "format": "biochemical, various animal species and man", "description": "The cGMP-PDE and other PDE isozymes were isolated from cardiovascular tissues (heart and aorta) of various animal species and man by anion-exchange and affinity chromatography as described by Silver et al., Sec. Messeng. Phos. 13:13-25, 1991; PDE activity, in the presence and absence of test compounds was determined essentially as described by Thompson et al., Adv. Cyclic Nucleotide Res. 10:69-92. To determine the potency and selectivity of compounds as PDE inhibitors, compounds are screened for their effect on cyclic nucleotide hydrolysis at 10 μM. […] The IC50 values are calculated from concentration-response curves as described by Tallarida and Murray, Manual of Pharmacologic Calculations with Computer Programs, Procedure 8, Graded Dose-response, pp. 14-19, Springer-Verlag, New York, 1981.", "note": "At least one structure is not confirmed: it was looked up by name or label, or the drawing left a doubt.", "data": [{"smiles": "CCn1ncc2c(NCC34CC5CC(CC(C5)C3)C4)c3ccccc3nc21", "note": "[Example 14, 1-ethyl-N-(adamantylmethyl)-1H-pyrazolo[3,4-b]quinolin-4-amine]", "values": [{"measurement": "IC50", "value": 0.105, "unit": "µM"}]}]}
